# Experimental data published in paper PMC9531463.
# These are yes or no findings as the source states them, for the method shown. Binding seen in cells or lysates may run through a third protein.
# Target: T1, cAMP Responsive Element Binding Protein 3 Like 1 (CREB3L1) (human (endogenous in 8505C)) (UniProt Q96BA8)
# T1 sequence: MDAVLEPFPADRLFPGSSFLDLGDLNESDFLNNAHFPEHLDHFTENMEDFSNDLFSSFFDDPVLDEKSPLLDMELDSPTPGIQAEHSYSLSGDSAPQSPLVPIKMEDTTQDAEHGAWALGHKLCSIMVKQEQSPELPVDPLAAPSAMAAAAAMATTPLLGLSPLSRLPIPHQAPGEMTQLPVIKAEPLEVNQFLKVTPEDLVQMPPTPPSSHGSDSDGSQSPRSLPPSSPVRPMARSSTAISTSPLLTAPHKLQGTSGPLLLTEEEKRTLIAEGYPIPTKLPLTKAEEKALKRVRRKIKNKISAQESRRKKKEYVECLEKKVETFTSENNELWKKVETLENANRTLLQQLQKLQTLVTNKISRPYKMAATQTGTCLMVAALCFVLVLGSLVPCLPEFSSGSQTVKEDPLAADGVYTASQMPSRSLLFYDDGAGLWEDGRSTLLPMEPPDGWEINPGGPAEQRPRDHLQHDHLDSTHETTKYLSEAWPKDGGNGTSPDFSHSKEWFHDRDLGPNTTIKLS
# Assay: co-IP; endogenous proteins; 8505C cells (legend: different thyroid cancer cells) lysed in IP buffer, immunoprecipitated with anti-CREB3L1 antibody, Protein A/G magnetic beads, washed three times with IP buffer, western blot
substance,measurement,value
Importin Beta (human (endogenous in 8505C)),binding,no binding
